Test results from PubChem BioAssay AID504467 (National Center for Advancing Translational Sciences (NCATS), 2011).
In all, about 330,000 compounds went through this assay and about 7,700 (2.3%) were called active. Inconclusive results, whose numbers are uncertain, are shown with a selection of clear calls. Calls follow the shape of the dose curve; as a rule, active = well fitted inhibition curve with a large enough effect; inconclusive = small, poorly fitted or top-dose-only effect, or effect the other way; inactive = flat fitted curve, though single readings scatter. Where the call is inconclusive, the potency comes from a doubtful curve fit.

test: qHTS screen for small molecules that inhibit ELG1-dependent DNA repair in human embryonic kidney (HEK293T) cells expressing luciferase-tagged ELG1; conditions: HEK293T ELG1-luciferase reporter, luminescence, 16 h, DNA damage induced by 5-fluorouridine; series mostly up to 46.1 µM; also: nearly all actives have a fitted effect of over 55% in size
Method in brief: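 HEK293T cells expressing luciferase-tagged ELG1 (2,000/well) received 5-Fluorouridine plus compound or DMSO for 16 hr at 37 °C. Luciferase was read by ONE-Glo luminescence after 30 min at room temperature.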
Potency is read from the fitted curve at half-maximal effect.

Row | Compound | Potency
1 | COc1ccc(C(=O)Nc2nc(CC(=O)NCc3ccc(F)cc3)cs2)cc1 | inconclusive: 29.1 µM [inhibitor, single point]
2 | O=C(NC(=O)c1c(Cl)cccc1Cl)Nc1ccc(Oc2cccnc2)nc1 | inconclusive: 32.6 µM [inhibitor, single point]
3 | COc1cc(CNn2cn[nH]c2=S)ccc1OCC(=O)NC(C)(C)C | inconclusive: 0.146 µM [activator, single point]
4 | COc1ccc(CN2CCN(Cc3csc(C(C)=O)c3)CC2CCO)c(C)c1C (stereo not drawn) | inconclusive: 29.1 µM [inhibitor, single point]
5 | Cn1cccc1-c1cc(C(=O)N/N=C/c2cc(Br)ccc2O)[nH]n1 | inconclusive: 5.17 µM [inhibitor, partial curve, poor fit]
6 | CCN(c1ccccc1)S(=O)(=O)c1cc(C(=O)NCc2ccccn2)ccc1C | inactive
7 | Cc1ccc(OCC(O)CNC2CCCC2)c(C)c1 (stereo not drawn) | inactive
8 | CCCCn1c(N)c(N(CCOC)C(=O)c2oc3ccc(OCC)cc3c2C)c(=O)[nH]c1=O | inactive
9 | COc1ccc2cc(/C=N/NC(=O)CN(c3ccccc3C)S(=O)(=O)c3ccccc3)c(Cl)nc2c1 | inconclusive: 32.6 µM [activator, partial curve, poor fit]
10 | O=C(NCc1cccc(Cl)c1)c1ccc2c(c1)OCCO2 | inactive
11 | COc1ccc(C)cc1-n1cnnn1 | inactive
12 | Cc1nnc(SCC(=O)NNC(=O)C(C)C)[nH]c1=O | inconclusive: 16.4 µM [activator, partial curve]
13 | CC(C)c1nc(-c2ccccn2)no1 | inconclusive: 18.4 µM [activator, single point]
14 | COc1cc(NC(=O)C/C(C)=N/NC(=O)c2cccs2)c(OC)cc1Cl | inconclusive: 18.3 µM [activator, single point]
15 | CCN1CCc2c(sc(NC(=O)c3ccc(S(=O)(=O)N4CCCC4)cc3)c2C(=O)NC)C1 | inactive
16 | O=C(CN(C(=O)c1csnn1)c1ccc2c(c1)OCCO2)NCc1ccccc1 | inconclusive: 2.91 µM [activator, partial curve]
17 | COc1ccc(CCN(C)Cc2nc(Cc3ccc(OC)c(OC)c3)no2)cc1OC | inconclusive: 29.1 µM [inhibitor, single point]
18 | Cc1cc2ncn(C(=O)c3ccc(F)cc3)c2cc1C | inactive
19 | CCC1CN(C(=O)N2CCC(C(=O)NCc3ccco3)CC2)c2cc(C)ccc2O1 (stereo not drawn) | inactive
20 | CCOCCCn1c(=S)[nH]c2cc(C(=O)N3CCC(C(N)=O)(N4CCCCC4)CC3)ccc2c1=O | inactive
21 | S=C(NCc1ccccc1)N1CCn2cccc2C1c1cccnc1 (stereo not drawn) | inconclusive: 7.3 µM [inhibitor, partial curve, poor fit]
22 | COC(=O)c1cc(S(=O)(=O)N2CCN(c3cc(C)ccc3C)CC2)c[nH]1 | inactive
23 | C[C@]12c3[nH]c4cc(-c5ccco5)ccc4c3CCN1C(=O)[C@@H](CC(=O)NCCc1ccccn1)C[C@@H]2C(=O)N1CCCCC1 | inconclusive: 11.6 µM [inhibitor, partial curve, poor fit]

Row | Compound | Potency
24 | CC(=O)Nc1ccccc1OCC(=O)NCCc1ccc(Cl)cc1Cl | inconclusive: 16.4 µM [inhibitor, partial curve, poor fit]
25 | COc1ccc(-c2oc3ncnc(NCCN4CCOCC4)c3c2-c2ccc(OC)cc2)cc1 | inconclusive: 6.51 µM [inhibitor, full curve, poor fit]
26 | COc1ccccc1CNC(=O)CCS(=O)(=O)c1ccc2c(c1)CC(C)N2C(=O)C1CC1 (stereo not drawn) | inactive
27 | CCCc1ccccc1OCCNC(C)=O | inconclusive: 2.31 µM [activator, full curve, poor fit]
28 | COc1cccc(C(=O)NCC(=O)OCC(=O)NC2CCCCC2)c1 | inactive
29 | COC(=O)c1ccc(NS(=O)(=O)c2ccc(S(=O)(=O)N3CCOCC3)cc2)cc1 | inconclusive: 20.6 µM [activator, single point]
30 | COc1cccc2c(C)c(C(=O)O)[nH]c12 | inconclusive: 16.4 µM [activator, partial curve, poor fit]
31 | COc1ccc(Cl)cc1NC(=O)CN(C)C(=O)c1ccc(N2CCCCC2)c([N+](=O)[O-])c1 | inconclusive: 35.5 µM [inhibitor, single point]
32 | NS(=O)(=O)c1ccc(NC(=O)COC(=O)c2cnc(Cl)c(Cl)c2)cc1 | inactive
33 | O=C(Cc1ccc2c(c1)OCCO2)c1c(O)cc(O)cc1O | inconclusive: 9.2 µM [activator, partial curve]
34 | O=S(=O)(c1cc(C(F)(F)F)ccc1Cl)N1CCN(c2ncnc3ccccc23)CC1 | inconclusive: 16.4 µM [inhibitor, partial curve, poor fit]
35 | O=C(COC(=O)c1ccc[n+]([O-])c1)Nc1cc([N+](=O)[O-])ccc1Cl | inconclusive: 18.3 µM [activator, partial curve, poor fit]
36 | Cc1ccc(C)n1-c1ccc(C(=O)NCc2ccncc2)cc1 | inconclusive: 9.2 µM [activator, partial curve, poor fit]
37 | O=[N+]([O-])c1cc(CN2CCN(c3cccc(C(F)(F)F)c3)CC2)c2cccnc2c1O | inconclusive: 6.51 µM [inhibitor, single point]
38 | COc1ccc(NC(=O)NC2(C(=O)N3CCN4CCCC4C3)CCCCC2)cc1 (stereo not drawn) | inconclusive: 6.51 µM [activator, single point]
39 | COc1cc(OC)cc(C(=O)N[C@H](C(=O)Nc2nc3c(s2)CCCC3)C(C)C)c1 | inconclusive: 23.1 µM [inhibitor, single point]
40 | Cc1snc2sc(C(=O)c3ccc(F)cc3)c(N)c12 | inconclusive: 9.2 µM [activator, partial curve]
41 | CC(C)CC(=O)Nc1ccc2nn(-c3ccccc3)nc2c1 | inconclusive: 2.59 µM [activator, full curve]
42 | CCOc1ccccc1OCCN1CCC(Cc2ccccc2)CC1 | inactive
43 | CCCCC(=O)NC(=S)Nc1ccccc1C(=O)Nc1ccccc1 | inactive
44 | Cn1cc(C(=O)c2ccc(Cl)cc2Cl)cc1C(=O)N/N=C(\N)COc1ccc(F)cc1 | inactive
45 | CCOC(=O)N/N=C/c1ccc(F)cc1F | inconclusive: 18.4 µM [activator, partial curve]
46 | COC(=O)c1cc(CNC(=O)c2sccc2-c2ccccc2)ccc1OC | inconclusive: 23.1 µM [inhibitor, partial curve]

Row | Compound | Potency
47 | C=CC[n+]1c(-c2ccc(Cl)cc2Cl)csc1Nc1c(C)n(C)n(-c2ccccc2)c1=O | inconclusive: 14.6 µM [inhibitor, partial curve, poor fit]
48 | Cc1ccc(-c2nc(CSCC(=O)N3CCN(c4ccccn4)CC3)c(C)o2)cc1 | active: 10.3 µM
49 | COCCOCC(O)CN1CCN(c2ccc(C)cc2)CC1 (stereo not drawn) | inconclusive: 6.51 µM [inhibitor, single point]
50 | Cc1c(/C=N/NC(N)=O)c2ccccn2c1C(=O)c1ccncc1 | inconclusive: 29.1 µM [inhibitor, partial curve, poor fit]
51 | Cc1cc2nc(C3CCN(CC4COc5ccccc5O4)CC3)[nH]c2cc1C (stereo not drawn) | inconclusive: 29.1 µM [inhibitor, single point]
52 | CN(CC(=O)Nc1ccc(F)c(F)c1F)C(=O)CN1C(=O)C2CCCCC2C1=O (stereo not drawn) | inactive
53 | Cc1cccc(NC(=S)N/N=C/c2ccc([N+](=O)[O-])s2)c1 | inconclusive: 2 µM [inhibitor, partial curve, poor fit]
54 | CC(C)(C)c1ccc(C(=O)NNC(=O)CCC(=O)Nc2ccccc2)cc1 | inactive
55 | Cc1[nH]c2ccccc2c1C(=O)CSC(=S)N1CCN(C)CC1 | inconclusive: 11.6 µM [activator, partial curve, poor fit]
56 | COc1ccc(OC)c(S(=O)(=O)Nc2cccc(-c3ccc4nncn4n3)c2)c1 | inconclusive: 29.1 µM [activator, partial curve, poor fit]
57 | COc1ccc(CN2CC(=O)N(c3cc(Cl)ccc3C)C2=S)cc1OC | inconclusive: 20.6 µM [inhibitor, single point]
58 | COc1ccc(N(C(=O)Cn2nnc3ccccc32)C2(C(=O)NC3CCCC3)CCCCC2)cc1 | inactive
59 | COc1cc2c(C)nc3onc(-c4ccccc4)c3c2cc1OC | inconclusive: 6.31 µM [inhibitor, full curve]
60 | COCCN(CCOC)C(=O)c1cc2sc3ccccc3c2s1 | inconclusive: 20.6 µM [activator, partial curve, poor fit]
61 | COc1ccccc1S(=O)Cc1ccc(C(=O)NC2CCCC2)o1 (stereo not drawn) | inactive
62 | COc1ccc(CCNC(=O)CSc2nnc(NC(C)=O)s2)cc1OC | inconclusive: 29.1 µM [activator, partial curve, poor fit]
63 | CCN(CC)c1nc2c(s1)C(=O)CC(C)(C)C2 | inconclusive: 18.4 µM [activator, single point]
64 | COc1cccc(CN(CC2CCCO2)C(=O)c2cc3ccccc3oc2=O)c1 (stereo not drawn) | inconclusive: 32.6 µM [activator, partial curve, poor fit]
65 | CN1CCN(S(=O)(=O)c2ccc3c(c2)NC(=O)CS3)CC1 | inconclusive: 13 µM [activator, partial curve, poor fit]
66 | O=C(O)CCn1c(SCCOc2ccccc2F)nc2ccccc21 | inactive
67 | COc1ccc(S(=O)(=O)CCC(=O)N2CCN(c3ccc(F)cc3)CC2)cc1 | inactive
68 | COc1cccc(-c2nc(NC(C)(C)C)c3ccccc3n2)c1O | inconclusive: 16.4 µM [inhibitor, single point]

Three of the compounds above, in markdown.

| Row | Compound | Potency |
| --- | --- | --- |
| 18 | Cc1cc2ncn(C(=O)c3ccc(F)cc3)c2cc1C | inactive |
| 19 | CCC1CN(C(=O)N2CCC(C(=O)NCc3ccco3)CC2)c2cc(C)ccc2O1 (stereo not drawn) | inactive |
| 20 | CCOCCCn1c(=S)[nH]c2cc(C(=O)N3CCC(C(N)=O)(N4CCCCC4)CC3)ccc2c1=O | inactive |
